Results: PubChem BioAssay AID493014 (National Center for Advancing Translational Sciences (NCATS), 2011)
This is one part of the list. Shown are side measurements of this screen, not its main read-out; they come without a call. The list favours compounds with an active or inconclusive main result. Potencies come from curve fits of mixed quality, noted in brackets.

Test: qHTS Assay to Find Inhibitors of Chronic Active B-Cell Receptor Signaling
Conditions: ABC-DLBCL IkBa-CBG/CBR reporter, luminescence ratio (green luciferase fused to IkBa over red control in TMD8 lymphoma cells), 4 h
Outline: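 Doxycycline induced both beetle luciferases in TMD8 lymphoma cells; IKK-driven degradation limits the IkappaBalpha-fused green signal, while red luminescence normalises for cell number and nonspecific effects. Compounds tested up to 46 uM, 4 hrs.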

[1] = measured here: CBR red luminescence, cell number
[2] = measured here: IkBa-CBG green luminescence

| SMILES | AC50 [1] | AC50 [2] |
| --- | --- | --- |
| COc1ccccc1C(CNc1ccc(S(=O)(=O)N2CCCC2)cc1[N+](=O)[O-])N(C)C (stereo not drawn) | 7.94 µM [falling, partial curve, poor fit] |  |
| Cc1cc(C)c(C#N)c(SCc2ccccc2[N+](=O)[O-])n1 | 20.6 µM [rising, partial curve, poor fit] |  |
| Cc1ccc(C=Nc2ccccc2C(N)=O)cc1 | 16.4 µM [rising, single point] | 29.1 µM [falling, single point] |
| Cc1nn(-c2ccccc2)c(Cl)c1/C=N/NC(=O)c1[nH]ncc1Br | 0.282 µM [falling, full curve, poor fit] |  |
| O=C(CN1CC[n+]2c(-c3cccs3)csc21)c1ccc(-c2ccccc2)cc1 | 15.8 µM [falling, single point] |  |
| Cc1ccc(-n2cnc3cc(C(=O)NCc4ccc(F)cc4)ccc32)c(C)c1 | 7.08 µM [rising, partial curve, poor fit] |  |
| O=C(N/N=C/c1ccco1)c1ccn[nH]1 | 12.6 µM [falling, partial curve] |  |
| Cc1ccc(NC(=O)NNC(=O)Cn2nc(-c3ccccc3)c(-c3ccccc3)c(C#N)c2=O)cc1 | 5.62 µM [rising, single point] | 3.16 µM [falling, partial curve, poor fit] |
| COc1cccc(-n2c(SCC(=O)NCc3ccco3)nnc2-c2c[nH]c3ccccc23)c1 | 7.31 µM [falling, partial curve] |  |
| CCC(=O)N(c1ccc(C(=O)O)cc1)c1nc(-c2ccc(OC)cc2)c(C)s1 | 10 µM [falling, partial curve] | 12.6 µM [rising, partial curve, poor fit] |
| CC1CCCN(C(=O)COc2ccc(-c3ccccc3)cc2)C1 (stereo not drawn) | 2.82 µM [rising, full curve, poor fit] |  |
| Cc1ccc(N=Nc2ccc(O)cc2)c(Br)c1 | 14.1 µM [rising, partial curve, poor fit] |  |
| CC1CC2=C(CC1/C=N/NC(N)=S)C(C)(C)CCC2 (stereo not drawn) | 29.1 µM [falling, single point] |  |
| CCOC(=O)c1c(NC(=S)N2CCN(C)CC2)sc2c1CCN(C(=O)OCC)C2 | 12.6 µM [falling, single point] |  |
| CCOC(=O)c1ccc(N2CN(C3CCCCC3)CNC2=S)cc1 | 8.2 µM [rising, partial curve, poor fit] |  |
| Cc1ccc(C(=O)CSc2nc3c([nH]2)c(=O)n(C)c(=O)n3C)cc1 | 2.51 µM [falling, partial curve] |  |
| CCC1Oc2nc(SC)nnc2-c2ccccc2N1C(=O)c1ccccc1 (stereo not drawn) | 16.4 µM [falling, partial curve, poor fit] |  |
| CC(=O)c1ccc(N2CCC(C(=O)O)CC2)cc1 | 5.01 µM [falling, single point] |  |
| CCOC(=O)CCc1c(C)c2ccc3c(c2oc1=O)CN(CCCO)CO3 | 1.58 µM [rising, full curve, poor fit] |  |
| Cc1[nH]cnc1C(=O)N/N=C/c1ccc([N+](=O)[O-])s1 | 35.5 µM [falling, single point] |  |

| SMILES | AC50 [1] | AC50 [2] |
| --- | --- | --- |
| NC(=O)[C@@H]1CC2(CC(c3cccc(NC(=O)COc4ccc(Cl)cc4)c3)=NO2)CN1C(=O)COc1ccc(Cl)cc1 (stereo partly drawn) | 20 µM [falling, partial curve] |  |
| Nc1[nH]c(N=NC(=O)c2ccc(Cl)cc2)c2ccccc12 | 7.31 µM [falling, partial curve] |  |
| O=c1c(-c2cccc([N+](=O)[O-])c2)[n+]([O-])c2ccccc2n1O | 1 µM [rising, partial curve] |  |
| CCCCOc1ccc(CONS(=O)(=O)c2ccc(NC(C)=O)cc2)cc1Cl | 18.4 µM [falling, single point] |  |
| CCn1cc(C(=O)N2CCCC2)c(=O)c2cc(S(=O)(=O)N(C)C)ccc21 | 5.8 µM [rising, full curve, poor fit] |  |
| COc1ccc([C@H]2CC(=O)C=C(c3cccc(Cl)c3O)C2)cc1OC | 4.11 µM [falling, full curve, poor fit] |  |
| CC(C)n1cnc2cc(NCc3ccccn3)ccc21 | 29.1 µM [falling, single point] |  |
| CCN(CC)c1ccc(/C=N/NC(=S)NCc2ccc(OC)cc2)cc1 | 7.31 µM [rising, partial curve] |  |
| Cc1cc(C(=O)NNC(=O)c2cccc(Cl)c2)no1 | 11.2 µM [falling, partial curve] |  |
| COc1cc(C(=O)NCc2nnc(SCC(=O)N3CCc4ccccc43)o2)cc(OC)c1OC | 29.1 µM [rising, single point] |  |
| Cc1cccn2c3c(c(=O)nc12)C(c1ccc(F)cc1)CC(=O)N3 (stereo not drawn) | 8.91 µM [falling, partial curve, poor fit] |  |
| COc1cc(-c2n[nH]c(=S)n2-c2cccc(C(F)(F)F)c2)cc(OC)c1OC | 16.4 µM [rising, single point] |  |
| O=S(=O)(NCC(c1ccco1)N1CCN(c2ccccc2)CC1)c1ccccc1 (stereo not drawn) | 2.51 µM [rising, full curve, poor fit] |  |
| COc1ccc(S(=O)(=O)NCC(c2ccc(C)cc2)N2CCN(C)CC2)cc1 (stereo not drawn) | 6.51 µM [rising, single point] |  |
| Cc1ccc(C(=O)N2CCN(c3cccc(Cl)c3)CC2)cc1C | 18.4 µM [falling, partial curve] | 16.4 µM [rising, partial curve, poor fit] |
| COc1cc(SC)ccc1C(=O)OCC(=O)N1CC(=O)Nc2ccccc21 | 11.6 µM [rising, partial curve] |  |
| CCN(Cc1ccncc1)Cc1c(O)ccc2ccccc12 | 7.08 µM [falling, partial curve, poor fit] |  |
| C/C(=N\NC(N)=S)c1ccccc1 | 11.2 µM [rising, partial curve, poor fit] |  |
| Cc1ccc([N+](=O)[O-])cc1NC(=O)C1CCN(S(C)(=O)=O)CC1 | 20.6 µM [rising, single point] |  |

Given as tab-separated lines: entries from further up
SMILES	AC50 [1]	AC50 [2]
Nc1[nH]c(N=NC(=O)c2ccc(Cl)cc2)c2ccccc12	7.31 µM [falling, partial curve]	
COc1ccc([C@H]2CC(=O)C=C(c3cccc(Cl)c3O)C2)cc1OC	4.11 µM [falling, full curve, poor fit]	
O=S(=O)(NCC(c1ccco1)N1CCN(c2ccccc2)CC1)c1ccccc1 (stereo not drawn)	2.51 µM [rising, full curve, poor fit]	
